Measured values: PubChem BioAssay AID2685 (National Center for Advancing Translational Sciences (NCATS), 2010)
Some of the results follow. These are further read-outs of the screen, such as a control signal, another cell line or another target. No call is given for them. Compounds called inactive in the main read-out are mostly missing here. The note in brackets gives the kind of curve behind each potency; many fits are weak.

Experiment: qHTS Assay for Lipid Storage Modulators in Drosophila S3 Cells;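 for cell number change: cells counted by Cell Tracker Red CMTPX staining in the red channel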
Settings: BODIPY lipid droplet fluorescence, 18-24 h; for cell number change: measured here: cell count max response, cells fed with added oleic acid
Procedure, shortened: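 Laser-scanning cytometry quantifies lipid droplet accumulation (500–530 nm total intensity; droplet/cell object ratio) in oleic acid-fed (400 uM added) Drosophila S3 cells treated with a concentration series. 20 uM Triacsin C defined 100% inhibition.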

[1] = measured here: cell number channel AC50, cells fed with added oleic acid
[2] = measured here: lipid fluorescence (Fed channel) AC50, cells fed with added oleic acid

SMILES | cell number change [%] | AC50 [1] | AC50 [2]
COc1ccccc1N(CC(=O)N1CCCCCC1)S(C)(=O)=O | -11.7 |  | 
COc1ccc(CNC(=O)C2CSC(c3ccc(OC)cc3)N2C(C)=O)cc1 (configuration not stated) |  | 0.116 µM [falling, full curve, poor fit] | 0.58 µM [falling, single point]
COc1cccc(CN(C)C(=O)CSC(C)C(=O)Nc2cc(C)on2)c1OC (configuration not stated) | 33.7 | 11.6 µM [rising, single point] | 18.4 µM [rising, single point]
CCOc1cc(-c2nc(C)c(C(C)=O)n2O)ccc1OCC(=O)Nc1ccccc1 | -8.3 |  | 
CC(C(=O)Nc1ccccc1C#N)N1C(=O)NC2(CCCCCC2)C1=O (configuration not stated) | 4.5 |  | 
Oc1c(Cl)cc(Cl)cc1Sc1cc(Cl)cc(Cl)c1O | -42.1 | 16.4 µM [falling, single point] | 29.1 µM [falling, single point]
CN=c1scc(-c2cccs2)n1/N=C/c1ccc(O)c(O)c1O | -29.9 |  | 29.1 µM [falling, single point]
CN(Cc1ccccc1)C(=O)CSc1nnc(-c2ccco2)n1-c1ccccc1 | -7.6 |  | 
CC(Sc1nnc(-c2ccco2)o1)C(=O)NCCC1=CCCCC1 (configuration not stated) | 23 |  | 
Cc1cc(=O)oc(C)c1C(=O)n1nc(C)c2c1C[C@@H]1[C@H]2C1(C)C | 5.34 |  | 29.1 µM [rising, single point]
O=C(Cc1ccc(Cl)cc1)OCC(=O)c1ccc[nH]1 | 23 |  | 
CCc1nnc(NC(=O)c2cc(-c3cccnc3)nc3ccccc23)s1 | 6.13 |  | 0.651 µM [falling, single point]
O=C(CNC(=O)C1CCCCC1)Nc1ccccc1Cl |  |  | 0.00731 µM [falling, full curve, poor fit]
CN(C)c1ccc2c(c1)Sc1cc(N(C)C)ccc1N2C(=O)c1ccccc1 | -21.5 |  | 
CCSc1nnc(CNc2ccc(F)cc2)n1CC1CCCO1 (configuration not stated) | 4.35 |  | 
COc1cccc(N=C(N)N=C(N)N)c1 | 9.83 |  | 3.26 µM [falling, partial curve, poor fit]
CC(=O)N/C(=C\c1ccccc1)C(=O)NC(C)C(=O)O (configuration not stated) | -48.3 | 29.1 µM [falling, single point] | 29.1 µM [falling, single point]
O=S(=O)(Cc1ccccc1Cl)Nc1ccccn1 | 3.18 |  | 0.082 µM [falling, full curve, poor fit]
O=C(Oc1ccc(Br)cc1C(=S)N1CCOCC1)c1ccc([N+](=O)[O-])cc1[N+](=O)[O-] | -25.4 |  | 4.61 µM [falling, full curve]

Copied from the list:
Value of COc1cccc(N=C(N)N=C(N)N)c1 under cell number change [%]: 9.83
Value of O=S(=O)(Cc1ccccc1Cl)Nc1ccccn1 under AC50 [2]: 0.082 µM [falling, full curve, poor fit]
